Results taken from patent US20170137489 (published 2017).

Assay: general procedure: Fmoc solid-phase peptide synthesis; Fmoc-Sieber Amide resin; HCTU/DIEA; TBTU/HOBt/DIEA
Conditions: whole synthesis, scale 1.41 kg resin, salt exchange using ammonium acetate and acetic acid buffers

H-Inp-D-Bal-D-Trp-Phe-Apc-NH2
crude HPLC purity (HPLC): 90.0%
crude yield: 80.8%
